From ChEMBL document CHEMBL3988442, “University of Dundee, Small-Polar-MMV Screening Library” (2021).

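Whole-parasite assay of Trypanosoma brucei over 72 hours; the read-out is not stated. Compounds at 30 µM. The record gives no direction; compounds that gave an IC50 in retests scored well above the rest, so higher reads as stronger inhibition. Values scatter widely below zero; nearly all retest evidence comes from the higher of the two concentrations used. Of about 64,000 compounds tested this way, about 940 (1.5%) reached 50% or more in at least one test.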

Results are given as percent effect. The controls that fix the scale are not given in the record; negative values are as filed. The compounds are a random part of those screened.

compound,percent effect
Cn1ncc2c(=O)[nH]c(CN3CCCc4cc(F)ccc43)nc21,-25.72
COc1c(CNC2CCCc3ccccc32)c(C)nn1C (centres unmarked),-3.536
c1sc(C2CCCCC2)nc1CN1CCn2c(nnc2C2CC2)C1,99.05
O=C(Nc1cccn(Cc2ccccc2)c1=O)c1ccncc1F,-34.08
CCSc1ncc(Cl)c(C(=O)NC(CCSC)C(=O)O)n1 (centres unmarked),-2.418
CCOc1ccccc1Oc1ccc(CN)cn1,-15.38
CCN1CCC2(CC1)CC(NC(=O)NC)c1cc(C)ccc12.O=C(O)C(F)(F)F (centres unmarked),35.74
CC(C)c1nc(C2CCCN(C(=O)CCc3cscn3)C2)no1 (centres unmarked),-2.594
Cc1cc(N2CCCN(CCc3ccccc3)CC2)ccn1,-1.146
Cc1ccc(N(CCC#N)C(=O)CCc2cccnc2)cc1C,-19.52
c1nc2n(n1)CC(NCc1nc(-c3ccsc3)no1)CC2 (centres unmarked),3.373
CSc1c[nH]nc1NS(=O)(=O)c1cc(F)ccc1C,-21.53
COCC(=O)N1CCCC(C(=O)N(C)CCCc2cnn(C)c2)C1 (centres unmarked),-3.04
COc1cc(CN(C)[C@@H]2COC[C@H]2c2ccc(F)cc2)cc(OC)c1.O=C(O)CC(O)(CC(=O)O)C(=O)O,-25.55
Cc1ccc(-c2nc(CN3CCn4c(nnc4C4CC4)C3)co2)c(C)c1,8.954
N#CC1(NC(=O)CNCCn2cccn2)CCCCC1,-29.71
O=C(C1CCCCC1)N1CCC2(CC1)OCCO2,-2.972
CC1CCN(C(=O)C2CC(=O)N(c3cnn(C(C)C)c3)C2)CC1 (centres unmarked),-39.57
O=C(c1ccc[nH]1)N1CCN(C(c2ccccc2)C(F)(F)F)CC1 (centres unmarked),-23.3
CN(C)C(=O)c1nc(CN2C(=O)OC[C@@H]2c2ccccc2)no1,-16.91
COc1ncccc1C(=O)N1CC(c2nc(-c3ccccn3)no2)C1,-28.55
Cc1ccc(-c2ccnc(NC(C)c3n[nH]c(C)n3)n2)c(C)n1 (centres unmarked),-26.74
COCc1n[nH]c2c1CN(Cc1cccs1)C2.O=C(O)C(F)(F)F,-42.06
O=C(O)C(F)(F)F.O=C(O)C(F)(F)F.O=C1NC2(CCN(Cc3ccsc3)CC2)CC1c1ccncc1 (centres unmarked),34.47
Cc1noc(C)c1CN1CCCC2(CCN(C(=O)NC3CC3)C2)C1.O=C(O)C(F)(F)F (centres unmarked),-11.93
CCc1[nH]c2c(CNc3nccc(N)n3)cc(F)cc2c1C,24.46
Cc1cccc(-c2cc(C(=O)O)sn2)c1,10.42
O=C(NCC(O)c1ccc(F)c(F)c1)c1ccccc1F (centres unmarked),-79.04
CN(Cc1cnn(C)c1)S(=O)(=O)N1CCCC1c1ccco1 (centres unmarked),-19.78
CC(=O)Nc1nc(C(=O)NCc2ccnc(N3CCCC3)c2)cs1,-17.75
Cc1n[nH]c(C)c1-c1nccnc1CC1CCN(S(C)(=O)=O)C1 (centres unmarked),-4.534
COCC(=O)N1CCC2(CC1)NC(=O)c1ccccc12.Cl,-67.87
CN(C)c1cccc(C(=O)Nc2cnn(Cc3ccccn3)c2)c1,-11.76
CCN(Cc1noc(CC(C)C)n1)Cc1cccc(F)c1O,-9.575
Cc1noc2ncc(S(=O)(=O)Nc3cc(C(C)(C)C)n[nH]3)cc12,-12.89
CCS(=O)(=O)NCC1Cn2nnc(-c3ccccc3)c2CO1 (centres unmarked),-20.01
Cc1nnc(N2CCNCC2)c(C(N)=O)c1C,-118.4
O=C(O)C(F)(F)F.O=C(O)C(F)(F)F.[H][C@]12CCN(c3ccc(C)nn3)[C@@]1([H])CC[C@H](COCc1cccnc1)O2,-8.268
O=C1CCCCCN1Cc1nc(C2(c3ccc(F)cc3)CCOC2)no1 (centres unmarked),-49.37
O=S(=O)(CCCN1CCCC1Cn1cncn1)c1ccccc1 (centres unmarked),2.957
COCc1nc(CNC2CCN(C(C)C)CC2)no1,7.928
CNC(=O)CN1CCC(CN(C)Cc2ccccc2N(C)C)CC1,-14.01
CC(CNC(=O)c1ccc(F)cc1I)N1CCCC1 (centres unmarked),0.5476
CC(C)C1SCC(=O)Nc2c1cnn2-c1ccc(Cl)cc1 (centres unmarked),16.61
CCC(=O)N1CSCC1C(=O)N(C)CCc1ccccc1 (centres unmarked),12.21
COc1ccc(CNCC2CN(C3CC3)CCO2)cc1F (centres unmarked),11.41
CCOc1cc2c(cc1CN1CCC3(CC1)CNC(=O)C3)CCC2,-17.68
O=C(CCS(=O)(=O)c1ccccc1)NCCCn1cccn1,-0.1026
CN1CCN(S(=O)(=O)C2CC2)Cc2cccnc21,5.425
Cc1nn(C)c(Cl)c1C1CCCN1C(=O)c1cnn(C)c1C1CC1 (centres unmarked),14.36
O=C(c1ccc[nH]1)N(Cc1ccc(O)cc1)CC1CC1,-53.85
[H][C@]12CCC[C@@]1(COCC1CCOCC1)CN(S(C)(=O)=O)C2,-52.55
CCC(O)Cn1cc(C2=CCN(Cc3cc(O)nc(C)n3)CC2)cn1 (centres unmarked),-64.42
CC(=O)Nc1cccc2c1ccn2CC(=O)Nc1nc[nH]n1,-4.281
Cc1nc2n(n1)CC(NCC(=O)NCC1(c3ccccc3)CC1)CC2 (centres unmarked),-21.53
CCOCC(O)CN1CCN(C(=O)c2cccc(F)c2)CC1 (centres unmarked),-1.35
CN(Cc1cc(C[C@@H]2C[C@H](N)C2(C)C)no1)c1ccccc1,18.81
COc1ncc(NC(=O)Nc2cc(C)ccc2OC)cn1,16.52
Cn1cc(CN2CCCn3cnc(COCc4ccco4)c3C2)cn1,-1.144
[H][C@@]12CO[C@@H](CNS(C)(=O)=O)[C@]1([H])CCN(C(=O)c1cnccn1)C2,-16.17
c1ccc2sc(CN3CCOC(Cn4cncn4)C3)nc2c1 (centres unmarked),-28.64
O=C1Nc2ccccc2NC12CCN(Cc1nnc(C3CC3)o1)CC2,-9.688
CC(C)(CN1CCC(Cc2ccc(CO)cc2)C1)N1CCOCC1 (centres unmarked),-60.23
COCCn1ccnc1C1CCCN(c2ncnc3c(C)csc23)C1 (centres unmarked),-6.667
O=C(NCC1CCOC1)N1CCN(Cc2ccc3c(c2)CCO3)CC1 (centres unmarked),54.6
CC(=O)c1c(C)cc(C)c(CS(=O)(=O)c2nccn2C)c1C,-36.71
CC(=O)NCCNCC1(O)CCCN(CCC2CCCCC2)C1=O (centres unmarked),-38.33
CCCc1nc(CN(CC)Cc2ccc(O)c(C(=O)O)c2)no1,-3.337
CC(C)N1CCC(NCc2cccnc2N(C)Cc2ccccc2)CC1,-2.696
Cc1ccc(NC(=O)N2CCCN(C(N)=O)CC2)s1,-40.57
Cc1cnc(CN(C)C2CCN(Cc3nc4ccccc4s3)C2)o1 (centres unmarked),-2.11
CN1C(=O)CC(c2cnn(C)c2)C12CCN(C(=O)c1ccco1)CC2 (centres unmarked),26.85
Cc1ccc(C(C)(O)CNC(=O)c2sccc2Br)o1 (centres unmarked),-4.67
CCCOc1ccc2c(c1)OCC(C(=O)NC(C)Cn1ccnc1)=C2 (centres unmarked),-23.46
CC(C)(O)c1cn(C2CCN(c3ncccc3Cl)CC2)nn1,-11.82
Cc1nc(C)n(CC2CCCCN2CCCC#N)n1 (centres unmarked),-20.77
c1ccc2sc(NCC3(N4CCOCC4)CCSC3)nc2c1 (centres unmarked),8.695
CCCC(=O)NC1CCN(c2ccccc2S(=O)(=O)CC)CC1,-21.44

The first 8 entries again:

Cn1ncc2c(=O)[nH]c(CN3CCCc4cc(F)ccc43)nc21 gave -25.72%.
COc1c(CNC2CCCc3ccccc32)c(C)nn1C (centres unmarked) gave -3.536%.
c1sc(C2CCCCC2)nc1CN1CCn2c(nnc2C2CC2)C1 gave 99.05%.
O=C(Nc1cccn(Cc2ccccc2)c1=O)c1ccncc1F gave -34.08%.
CCSc1ncc(Cl)c(C(=O)NC(CCSC)C(=O)O)n1 (centres unmarked) gave -2.418%.
CCOc1ccccc1Oc1ccc(CN)cn1 gave -15.38%.
CCN1CCC2(CC1)CC(NC(=O)NC)c1cc(C)ccc12.O=C(O)C(F)(F)F (centres unmarked) gave 35.74%.
CC(C)c1nc(C2CCCN(C(=O)CCc3cscn3)C2)no1 (centres unmarked) gave -2.594%.